The list shows a part of the results.
Key:
Experiment in all cases: log2 fold change, soluble protein after heating vs DMSO (PISA); higher = thermal stabilisation; K562 lysate, 10 uM; active = over 0.2 and 3.5 SD of the protein, either way, in both replicates (recomputed)
vemurafenib = compound: CCCS(=O)(=O)Nc1ccc(F)c(C(=O)c2c[nH]c3ncc(-c4ccc(Cl)cc4)cc23)c1F [vemurafenib]
Summary of the method: (§1)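 Soluble protein was defined as the supernatant remaining after 21,000xg for 90 min, following pooling of heated aliquots and adjustment to 0.5% NP-40 at 4°C. Before that, crude K562 extract at 1 mg/mL protein in PBS pH 7.4 with 1 mM MgCl2 was treated with 10 μM compound for 30 min and heated for 3 min across 48°C-58°C. Quantification used TMTpro 16plex LC-MS/MS with channel sums equalised, and values are log-two fold changes in thermal stability relative to solvent controls from duplicates.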

The chains behind the UniProt entries cited, without tags or fusion partners. Where a name states a change or a piece, a line headed by the entry shows the natural chain unless it says otherwise.
UniProt Q9HD15: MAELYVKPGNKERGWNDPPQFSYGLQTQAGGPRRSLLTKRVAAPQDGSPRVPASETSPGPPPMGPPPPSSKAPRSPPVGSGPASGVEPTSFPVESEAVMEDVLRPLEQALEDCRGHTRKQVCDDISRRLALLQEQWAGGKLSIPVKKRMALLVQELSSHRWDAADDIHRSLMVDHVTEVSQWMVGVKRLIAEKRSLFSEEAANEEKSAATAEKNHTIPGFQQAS
UniProt Q14849, whole entry, looked up: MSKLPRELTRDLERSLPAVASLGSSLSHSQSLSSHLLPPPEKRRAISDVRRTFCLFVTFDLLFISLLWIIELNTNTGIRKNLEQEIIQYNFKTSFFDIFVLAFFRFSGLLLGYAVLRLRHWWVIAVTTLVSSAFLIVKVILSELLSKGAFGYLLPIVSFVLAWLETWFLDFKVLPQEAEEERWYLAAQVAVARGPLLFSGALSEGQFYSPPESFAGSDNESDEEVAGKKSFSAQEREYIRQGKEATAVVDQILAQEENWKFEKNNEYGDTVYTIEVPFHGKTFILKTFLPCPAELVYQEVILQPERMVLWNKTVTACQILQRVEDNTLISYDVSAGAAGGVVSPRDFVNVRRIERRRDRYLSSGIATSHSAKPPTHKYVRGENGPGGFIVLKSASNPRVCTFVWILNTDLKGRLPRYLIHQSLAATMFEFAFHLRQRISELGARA
UniProt Q8WW59: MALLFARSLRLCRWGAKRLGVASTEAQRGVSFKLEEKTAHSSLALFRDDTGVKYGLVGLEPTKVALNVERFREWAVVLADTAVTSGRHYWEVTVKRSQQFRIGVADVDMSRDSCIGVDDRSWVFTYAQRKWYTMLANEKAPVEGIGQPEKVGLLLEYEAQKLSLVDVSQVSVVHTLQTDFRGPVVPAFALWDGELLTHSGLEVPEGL
UniProt P84103: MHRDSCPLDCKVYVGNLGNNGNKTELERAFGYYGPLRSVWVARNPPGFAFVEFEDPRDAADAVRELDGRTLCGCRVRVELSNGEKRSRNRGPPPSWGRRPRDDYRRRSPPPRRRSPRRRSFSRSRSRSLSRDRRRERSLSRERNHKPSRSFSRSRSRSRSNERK
UniProt Q9NUL3: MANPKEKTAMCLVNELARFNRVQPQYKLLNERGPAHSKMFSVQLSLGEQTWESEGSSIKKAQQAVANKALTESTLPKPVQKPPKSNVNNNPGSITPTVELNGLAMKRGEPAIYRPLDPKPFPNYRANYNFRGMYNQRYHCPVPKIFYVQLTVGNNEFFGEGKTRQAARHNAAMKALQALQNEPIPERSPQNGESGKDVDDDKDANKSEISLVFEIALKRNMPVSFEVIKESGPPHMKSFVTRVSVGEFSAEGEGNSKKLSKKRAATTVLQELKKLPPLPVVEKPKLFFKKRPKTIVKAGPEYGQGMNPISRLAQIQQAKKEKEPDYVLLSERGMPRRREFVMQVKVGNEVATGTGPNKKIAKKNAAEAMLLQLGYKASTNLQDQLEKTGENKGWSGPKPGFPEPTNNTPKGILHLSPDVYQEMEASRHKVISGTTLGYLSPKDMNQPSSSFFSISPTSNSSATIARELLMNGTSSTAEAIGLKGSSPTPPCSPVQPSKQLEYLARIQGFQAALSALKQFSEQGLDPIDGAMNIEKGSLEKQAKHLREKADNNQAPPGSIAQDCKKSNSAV
UniProt O15270: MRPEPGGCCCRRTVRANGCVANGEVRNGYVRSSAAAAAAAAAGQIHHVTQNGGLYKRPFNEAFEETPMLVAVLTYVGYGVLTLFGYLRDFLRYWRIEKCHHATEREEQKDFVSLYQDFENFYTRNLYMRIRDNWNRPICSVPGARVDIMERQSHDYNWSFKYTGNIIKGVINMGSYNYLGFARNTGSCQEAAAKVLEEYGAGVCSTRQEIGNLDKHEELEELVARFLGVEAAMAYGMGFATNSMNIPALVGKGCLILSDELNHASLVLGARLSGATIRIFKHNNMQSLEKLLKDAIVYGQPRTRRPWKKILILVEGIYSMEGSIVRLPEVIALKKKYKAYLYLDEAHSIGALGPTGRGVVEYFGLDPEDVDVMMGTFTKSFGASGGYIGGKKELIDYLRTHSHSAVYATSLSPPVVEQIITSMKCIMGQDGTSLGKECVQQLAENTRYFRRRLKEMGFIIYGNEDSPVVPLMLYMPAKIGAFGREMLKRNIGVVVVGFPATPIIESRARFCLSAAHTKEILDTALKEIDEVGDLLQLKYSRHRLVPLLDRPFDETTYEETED
UniProt O43805: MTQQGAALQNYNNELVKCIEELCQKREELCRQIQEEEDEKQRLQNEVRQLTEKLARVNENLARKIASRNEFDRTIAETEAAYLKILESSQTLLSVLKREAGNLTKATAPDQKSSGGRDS
UniProt Q01130: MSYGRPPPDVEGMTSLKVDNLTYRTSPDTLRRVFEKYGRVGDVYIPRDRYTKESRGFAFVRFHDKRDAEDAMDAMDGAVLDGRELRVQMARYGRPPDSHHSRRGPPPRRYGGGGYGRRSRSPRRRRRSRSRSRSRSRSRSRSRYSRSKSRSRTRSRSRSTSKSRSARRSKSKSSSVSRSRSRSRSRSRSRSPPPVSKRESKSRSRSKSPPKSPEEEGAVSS

[1] = compound: CCCS(=O)(=O)Nc1ccc(F)c(C(=O)c2c[nH]c3ncc(Cl)cc23)c1F
Summary of the method: as §1

barasertib = compound: CCN(CCCOc1ccc2c(Nc3cc(CC(=O)Nc4cccc(F)c4)[nH]n3)ncnc2c1)CCOP(=O)(O)O [barasertib]
Summary of the method: as §1

[2] = compound: CC[C@@H]1C(=O)N(C)c2cnc(Nc3ccc(C(=O)NC4CCN(C)CC4)cc3OC)nc2N1C1CCCC1
Summary of the method: as §1

volasertib = compound: CC[C@@H]1C(=O)N(C)c2cnc(Nc3ccc(C(=O)N[C@H]4CC[C@H](N5CCN(CC6CC6)CC5)CC4)cc3OC)nc2N1C(C)C [volasertib]
Summary of the method: as §1

[3] = compound: CCn1c(C(=O)N(C2CC2)C2CC2)cc2c3c(ncn3C)c(Nc3cc(C)n(C)n3)nc21
Summary of the method: as §1

[4] = compound: CCn1cc(-c2ccnc3[nH]c(-c4cccc(CN(C)C)c4)cc23)c(-c2ccc(NC(=O)N(C)C)cc2)n1
Summary of the method: as §1

[5] = compound: CN1CCC(CNc2ccc3ncc(-c4cccc(OC(F)(F)F)c4)n3n2)CC1
Summary of the method: as §1

saracatinib = compound: CN1CCN(CCOc2cc(OC3CCOCC3)c3c(Nc4c(Cl)ccc5c4OCO5)ncnc3c2)CC1 [saracatinib]
Summary of the method: as §1

sotrastaurin = compound: CN1CCN(c2nc(C3=C(c4c[nH]c5ccccc45)C(=O)NC3=O)c3ccccc3n2)CC1 [sotrastaurin]
Summary of the method: as §1

alvocidib = compound: CN1CC[C@H](c2c(O)cc(O)c3c(=O)cc(-c4ccccc4Cl)oc23)[C@H](O)C1 [alvocidib]
Summary of the method: as §1

Tubastatin A = compound: CN1CCc2c(c3ccccc3n2Cc2ccc(C(=O)NO)cc2)C1 [Tubastatin A]
Summary of the method: as §1

[6] = compound: CNC(=O)C1=CC=CC=C1NC2=NC(=NC=C2Cl)NC3=C(C=C(C=C3)N4CCOCC4)OC
Summary of the method: as §1

defactinib = compound: CNC(=O)c1ccc(Nc2ncc(C(F)(F)F)c(NCc3nccnc3N(C)S(C)(=O)=O)n2)cc1 [defactinib]
Summary of the method: as §1

[7] = compound: CNc1nc(-c2ccc3c(N)n[nH]c3c2)cc(N2C[C@@H](C(=O)NC3CCCCC3)CC[C@H]2C)n1
Summary of the method: as §1

encorafenib = compound: COC(=O)N[C@@H](C)CNc1nccc(-c2cn(C(C)C)nc2-c2cc(Cl)cc(NS(C)(=O)=O)c2F)n1 [encorafenib]
Summary of the method: as §1

[8] = compound: COC(=O)[C@H](CCSC)NC(=O)C1=C(C=C(C=C1)NC[C@H](CS)N)C2=CC=CC=C2
Summary of the method: as §1

alisertib = compound: COc1cc(Nc2ncc3c(n2)-c2ccc(Cl)cc2C(c2c(F)cccc2OC)=NC3)ccc1C(=O)O [alisertib]
Summary of the method: as §1

[9] = compound: COc1cc2nc(-c3cc(F)ccc3O)nc(N[C@@H]3CNC[C@H]3C(C)(C)O)c2cc1OC
Summary of the method: as §1

gefitinib = compound: COc1cc2ncnc(Nc3ccc(F)c(Cl)c3)c2cc1OCCCN1CCOCC1 [gefitinib]
Summary of the method: as §1

Measured: log2 fold change

SRA1 (UniProt Q9HD15)
inactive: vemurafenib 0.009 | [1] 0.02 | barasertib 0.045 | [2] 0.016 | volasertib 0.001 | [3] -0.019 | [4] 0 | [5] 0.1 | saracatinib 0.024 | sotrastaurin 0.035 | alvocidib -0.02 | Tubastatin A 0.059 | [6] 0.001 | defactinib -0.002 | [7] 0.005 | encorafenib -0.002 | [8] -0.02 | alisertib 0.005 | [9] -0.002 | gefitinib -0.001

STARD3 isoform 3 (UniProt Q14849)
inactive: vemurafenib 0.029 | [1] 0.054 | barasertib 0.051 | [2] 0.289 | volasertib 0.18 | [3] -0.031 | [4] -0.122 | [5] 0.02 | saracatinib -0.091 | sotrastaurin -0.016 | alvocidib -0.037 | Tubastatin A 0.079 | [6] 0.004 | defactinib -0.019 | [7] 0.068 | encorafenib -0.029 | [8] 0.055 | alisertib -0.007 | [9] -0.059 | gefitinib 0.081

SPRYD4 (UniProt Q8WW59)
inactive: vemurafenib -0.022 | [1] 0 | barasertib 0.024 | [2] -0.009 | volasertib -0.02 | [3] -0.012 | [4] -0.067 | [5] 0.069 | saracatinib -0.006 | sotrastaurin -0.001 | alvocidib -0.016 | Tubastatin A 0.047 | [6] 0.005 | defactinib -0.01 | [7] 0.011 | encorafenib 0.003 | [8] 0.01 | alisertib 0.017 | [9] 0.008 | gefitinib -0.034

SRSF3 (UniProt P84103)
inactive: vemurafenib -0.06 | [1] -0.013 | barasertib 0.012 | [2] -0.117 | volasertib 0.007 | [3] -0.025 | [4] 0.018 | [5] 0.047 | saracatinib -0.03 | sotrastaurin -0.058 | alvocidib -0.051 | Tubastatin A 0.028 | [6] -0.036 | defactinib -0.017 | [7] 0.039 | encorafenib 0.018 | [8] -0.026 | alisertib 0.043 | [9] 0.005 | gefitinib 0.038

STAU2 (UniProt Q9NUL3)
inactive: vemurafenib 0.057 | [1] 0.002 | barasertib -0.013 | [2] 0.007 | volasertib -0.046 | [3] -0.016 | [4] 0.017 | [5] -0.039 | saracatinib 0.007 | sotrastaurin 0.069 | alvocidib 0.004 | Tubastatin A -0.133 | [6] 0.028 | defactinib 0.008 | [7] 0.025 | encorafenib 0.026 | [8] -0.004 | alisertib -0.008 | [9] 0.01 | gefitinib -0.011

SPTLC2 (UniProt O15270)
inactive: vemurafenib 0.013 | [1] -0.008 | barasertib 0.017 | [2] 0.055 | volasertib 0 | [3] 0.004 | [4] 0 | [5] 0.011 | saracatinib 0.026 | sotrastaurin 0.02 | alvocidib -0.066 | Tubastatin A 0.007 | [6] 0.003 | defactinib 0.016 | [7] -0.063 | encorafenib 0.018 | [8] -0.036 | alisertib -0.025 | [9] 0.014 | gefitinib 0.026

SSNA1 (UniProt O43805)
inactive: vemurafenib -0.067 | [1] -0.022 | barasertib 0.134 | [2] 0.075 | volasertib 0.027 | [3] 0.016 | [4] -0.005 | [5] -0.002 | saracatinib 0.013 | sotrastaurin 0.004 | alvocidib 0.016 | Tubastatin A 0.038 | [6] 0.043 | defactinib -0.036 | [7] 0.109 | encorafenib 0.023 | [8] -0.115 | alisertib 0.027 | [9] -0.014 | gefitinib 0.013

SRSF2 (UniProt Q01130)
inactive: vemurafenib -0.001 | [1] -0.014 | barasertib -0.007 | [2] 0.02 | volasertib 0.002 | [3] -0.065 | [4] -0.232 | [5] 0.153 | saracatinib 0.033 | sotrastaurin 0.024 | alvocidib -0.135 | Tubastatin A 0.084 | [6] -0.017 | defactinib -0.018 | [7] -0.005 | encorafenib 0.033 | [8] -0.016 | alisertib -0.004 | [9] 0.016 | gefitinib 0.015
